For at least one compound, name, drawing or mass did not settle the structure. Where a SMILES comes first, the peptide text is derived from it.
Molecular target: complex of His-TEV LRRC4B and recombinant FAM19A5 protein (Homo sapiens, UniProt Q7Z5A7)
Assay: Competitive inhibition assay (IC50), plate coated with His-TEV LRRC4B
Assay type: binding
Details: 100 nM His-TEV LRRC4B coated; rFAM19A5 1 ng/mL; 37° C.; peptide 0.3-10000 nM; read-out: Inhibition (IC50) on Complex Formulation between anti-FAM19A5 antibody and recombinant FAM19A5 protein (1 ng/mL)
Protocol: To further assess the inhibitory effect of the FB-21 mutants, the ability of additional FB-21 mutants described in Example 9 were tested for their ability to inhibit the interaction between FAM19A5 protein and LRRC4B protein. Briefly, plates were coated with 100 nM of His-TEV LRRC4B and then 1 ng/mL of rFAM19A5 was incubated at 37° C. in the presence of increasing concentrations of the FB-21 peptide fragments (0.3, 1, 3, 10, 30, 100, 300, 1000, 3000 and 10000 nM). The LRRC4B-bound FAM19A5 levels were measured using HRP-conjugated 1-65 SS01 antibody. As shown in FIG. 22B (see Table 15 for IC50), most (if not all) of the FB-21 mutants had improved ability in inhibiting the interaction between LRRC4B and recombinant FAM19A5 protein.
Next, to assess whether other properties of the polypeptides described herein can be improved (e.g., solubility, prevention of degradation from protease and peptidase, and in vivo administration), the following additional FB-21 peptide mutants were constructed and tested for their ability to inhibit the interaction between FAM19A5 protein and LRRC4B: (1) d-form FB-21 peptide (“dFB-21”), (2) d-form FB-21 peptide with juxta-membrane (JM) sequence (“dFB-JM-31”), (3) d-form FB-21 peptide with BBB penetrating sequence at each end of the sequence (“dFB-BBB-39”), and (4) d-form FB-21 mutant peptide with DY replacement and additional JM sequence (“dFB-DY-JM31”). […]

Amino acid sequences for entries named in this document (tags omitted). Residues count along the entry.
UniProt Q7Z5A7, 44-132: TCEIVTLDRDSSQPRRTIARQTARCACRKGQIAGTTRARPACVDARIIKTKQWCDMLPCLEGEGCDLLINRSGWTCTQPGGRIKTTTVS

CC[C@H](C)[C@H](NC(=O)[C@H](CC(=O)O)NC(=O)[C@H](CCC(=O)O)NC(=O)[C@@H](NC(=O)[C@@H](NC(=O)[C@@H](NC(=O)[C@@H](NC(=O)[C@@H](NC(=O)[C@H](Cc1ccccc1)NC(=O)[C@H](Cc1ccc(O)cc1)NC(=O)[C@@H](NC(=O)[C@H](Cc1ccc(O)cc1)NC(=O)CN)[C@@H](C)O)[C@@H](C)O)[C@@H](C)O)C(C)C)[C@@H](C)O)C(C)C)C(=O)N[C@@H](CCC(=O)O)C(=O)N[C@H](C(=O)N[C@@H](CCC(N)=O)C(=O)N1CCC[C@H]1C(=O)NCC(=O)N[C@@H](CCC(=O)O)C(=O)N[C@@H](CCC(=O)O)C(=O)N[C@@H](C)C(=O)O)[C@@H](C)O [FB-21 (D12113)] (H-GYTYFTTVTVEDIETQPGEEA-OH; N-terminus and C-terminus assumed)
IC50: 0.0218 µM
